# Assay results from patent publication US12569464B2, “Protein-protein interaction inducing technology” (Arvinas Operations, Inc., priority 2016, dated 2026).
# Chains of the proteins cited; added tags and fusions are not shown. Lines headed by an entry give the natural chain unless they say otherwise; changes in a name come on top.
# UniProt P10275, whole entry T878A: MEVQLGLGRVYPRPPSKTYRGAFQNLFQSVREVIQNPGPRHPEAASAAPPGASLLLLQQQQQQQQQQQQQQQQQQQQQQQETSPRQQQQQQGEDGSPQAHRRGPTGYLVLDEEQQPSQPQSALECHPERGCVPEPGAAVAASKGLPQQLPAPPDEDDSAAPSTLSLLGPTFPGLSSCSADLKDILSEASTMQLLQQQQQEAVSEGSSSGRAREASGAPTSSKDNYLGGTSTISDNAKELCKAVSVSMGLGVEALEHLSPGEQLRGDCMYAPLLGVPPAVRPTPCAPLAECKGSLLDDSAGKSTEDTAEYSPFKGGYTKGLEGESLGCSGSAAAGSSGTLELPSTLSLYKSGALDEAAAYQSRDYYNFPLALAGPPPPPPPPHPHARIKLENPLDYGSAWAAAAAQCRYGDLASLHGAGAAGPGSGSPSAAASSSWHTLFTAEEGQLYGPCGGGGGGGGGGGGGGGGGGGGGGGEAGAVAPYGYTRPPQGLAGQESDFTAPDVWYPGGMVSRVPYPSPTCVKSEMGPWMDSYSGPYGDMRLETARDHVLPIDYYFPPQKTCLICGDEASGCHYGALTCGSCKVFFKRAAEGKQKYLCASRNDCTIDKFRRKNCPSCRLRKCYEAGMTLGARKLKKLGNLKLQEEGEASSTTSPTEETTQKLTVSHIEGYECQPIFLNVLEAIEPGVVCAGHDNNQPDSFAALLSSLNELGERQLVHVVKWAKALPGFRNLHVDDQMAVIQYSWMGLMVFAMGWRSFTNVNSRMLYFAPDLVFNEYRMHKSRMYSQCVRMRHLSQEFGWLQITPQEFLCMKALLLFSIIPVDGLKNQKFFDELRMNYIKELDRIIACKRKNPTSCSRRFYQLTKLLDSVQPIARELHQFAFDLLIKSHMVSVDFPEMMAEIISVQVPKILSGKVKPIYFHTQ
# UniProt P40337, whole entry: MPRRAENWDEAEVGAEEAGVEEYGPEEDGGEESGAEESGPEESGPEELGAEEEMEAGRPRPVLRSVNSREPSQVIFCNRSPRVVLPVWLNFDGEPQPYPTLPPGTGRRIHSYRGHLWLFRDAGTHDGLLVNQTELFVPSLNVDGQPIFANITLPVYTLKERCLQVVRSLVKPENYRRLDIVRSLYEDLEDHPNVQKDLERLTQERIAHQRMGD
# For at least one compound, name, drawing or mass did not settle the structure.
# Target: T1, AR (Homo sapiens, UniProt P10275+P40337, T878A)
# T1 construct: degradation Dmax of AR in LNCaP cells; endogenous in cells; host or cells: LNCaP
# Experiment: AR degradation in LNCaP cells (androgen receptor ELISA)
# Format: cell-based
# Description: The connector linking the AR-binding warhead and the VHL-binding warhead was systematically probed from 4 to 23 atoms. The AR degradation potency DC50 and the maximum percentage of degradation Dmax of AR in LNCaP cells were measured for each of these compounds. […] The binary binding potency with respect to AR was also measured for some of the compounds by the cell-based ligand (R1881) displacement assay. The ratio α between the AR-binding potency and the degradation potency are calculated when it is possible.
# Androgen Receptor ELISA Assay
# The protocols used with VCaP cells are described below. The androgen receptor ELISA assay was performed using PathScan AR ELISA (Cell Signaling Catalog #12850) according to the following assay steps: […]
SMILES,ratio α between AR-binding potency IC50 and degradation potency DC50,"DC50 (LNCaP cells, read-out: AR degradation potency DC50) [µM]"
Cc1ncsc1-c1ccc(CNC(=O)[C@@H]2C[C@@H](O)CN2C(=O)[C@@H](NC(=O)CCCOc2ccc(N3C(=S)N(c4ccc(C#N)c(C(F)(F)F)c4)C(=O)C3(C)C)cc2)C(C)(C)C)cc1 [Compound 1],<1,
Cc1ncsc1-c1ccc(CNC(=O)[C@@H]2C[C@@H](O)CN2C(=O)[C@@H](NC(=O)CCOCCOc2ccc(N3C(=S)N(c4ccc(C#N)c(C(F)(F)F)c4)C(=O)C3(C)C)cc2)C(C)(C)C)cc1 [Compound 3],,9.3
Cc1ncsc1-c1ccc(CNC(=O)[C@@H]2C[C@@H](O)CN2C(=O)[C@@H](NC(=O)COCCOCCOCCOCCOCCOCCOc2ccc(N3C(=S)N(c4ccc(C#N)c(C(F)(F)F)c4)C(=O)C3(C)C)cc2)C(C)(C)C)cc1 [Compound 16],0.58,
Cc1ncsc1-c1ccc(CNC(=O)[C@@H]2C[C@@H](O)CN2C(=O)[C@@H](NC(=O)COCCOCCCCOCCCCOCCOCCOc2ccc(N3C(=S)N(c4ccc(C#N)c(C(F)(F)F)c4)C(=O)C3(C)C)cc2)C(C)(C)C)cc1 [Compound 17],<1,
